Some results were stated once for a whole list of compounds, not compound by compound.
tested on: Capan-1 (K-Ras G12V); experiment: CellTiter-Glo cell viability assay, Capan-1; assay type: cell-based, human; conditions: 5-day treatment, Capan-1 and/or NCI-H2009 versus A375

| Compound | decrease in cell viability with respect to Capan-1 and/or NCI-H2009 versus wild-type KRAS (A375) |
| --- | --- |
| CO[C@@H](C)c1ncccc1-c1c2c3cc(ccc3n1C1CN(C3CC3)C1)-c1csc(n1)[C@@H](OCc1cncn1C)[C@H](NC(=O)[C@H]1[C@H](C)[C@@H]1C)C(=O)N1CCC[C@H](N1)C(=O)OCC(C)(C)C2 (atropisomer, axis not shown) [Example A1001] | greater decrease in cell viability |
| CO[C@@H](C)c1ncccc1-c1c2c3cc(ccc3n1C1CN(C3CC3)C1)-c1coc(n1)[C@@H](OCc1cncs1)[C@H](NC(=O)[C@H]1[C@H](C)[C@@H]1C)C(=O)N1CCC[C@H](N1)C(=O)OCC(C)(C)C2 (atropisomer, axis not shown) [Example A1002] | greater decrease in cell viability |
| CO[C@@H](C)c1ncccc1-c1c2c3cc(ccc3n1C1CN(C3CC3)C1)-c1csc(n1)[C@@H](OCc1cncn1C)[C@H](NC(=O)[C@@H]1[C@@H](C)[C@H]1c1ccncn1)C(=O)N1CCC[C@H](N1)C(=O)OCC(C)(C)C2 (atropisomer, axis not shown) [Example A1004] | greater decrease in cell viability |
| CO[C@@H](C)c1ncccc1-c1c2c3cc(ccc3n1C1CN(C3CC3)C1)-c1csc(n1)[C@@H](OCC(C)(C)F)[C@H](NC(=O)[C@H]1[C@H](C)[C@@H]1C)C(=O)N1CCC[C@H](N1)C(=O)OCC(C)(C)C2 (atropisomer, axis not shown) [Example A1012] | greater decrease in cell viability |
| COCCN1CCN(c2cnc([C@H](C)OC)c(-c3c4c5cc(ccc5n3C3CN(C5CC5)C3)-c3csc(n3)[C@@H](N3CC5(COC5)C3)[C@H](NC(=O)[C@@H]3[C@@H](C)[C@H]3c3ccncn3)C(=O)N3CCC[C@H](N3)C(=O)OCC(C)(C)C4)c2)CC1 (atropisomer, axis not shown) [Example A1015] | greater decrease in cell viability |
| CO[C@@H](C)c1ncccc1-c1c2c3cc(ccc3n1C1CN(C3CC3)C1)-c1csc(n1)[C@@H](OC1CCCC1)[C@H](NC(=O)[C@@H]1[C@@H](C)[C@H]1c1ccncn1)C(=O)N1CCC[C@H](N1)C(=O)OCC(C)(C)C2 (atropisomer, axis not shown) [Example A1022] | greater decrease in cell viability |
| CO[C@@H](C)c1ncccc1-c1c2c3cc(ccc3n1C1CN(C3CC3)C1)-c1csc(n1)[C@@H](OCc1cncs1)[C@H](NC(=O)[C@H]1[C@H](C)[C@@H]1C)C(=O)N1CCC[C@H](N1)C(=O)OCC(C)(C)C2 (atropisomer, axis not shown) [Example A1040] | greater decrease in cell viability |
| CO[C@@H](C)c1ncccc1-c1c2c3cc(ccc3n1C1CN(C3CC3)C1)-c1csc(n1)[C@@H](OCC(C)C)[C@H](NC(=O)[C@H]1[C@H](C)[C@@H]1C)C(=O)N1CCC[C@H](N1)C(=O)OCC(C)(C)C2 (atropisomer, axis not shown) [Example A1057] | greater decrease in cell viability |
| CO[C@@H](C)c1ncccc1-c1c2c3cc(ccc3n1C1CN(C3CC3)C1)-c1csc(n1)[C@@H](OCc1cccnc1)[C@H](NC(=O)[C@H]1[C@H](C)[C@@H]1C)C(=O)N1CCC[C@H](N1)C(=O)OCC(C)(C)C2 (atropisomer, axis not shown) [Example A1067] | greater decrease in cell viability |
| CO[C@@H](C)c1ncccc1-c1c2c3cc(ccc3n1C1CN(C3CC3)C1)-c1coc(n1)[C@@H](OCc1cccnc1)[C@H](NC(=O)[C@H]1[C@H](C)[C@@H]1C)C(=O)N1CCC[C@H](N1)C(=O)OCC(C)(C)C2 (atropisomer, axis not shown) [Example A1069] | greater decrease in cell viability |
| CO[C@@H](C)c1ncc(N2CCN(C3CC3)CC2)cc1-c1c2c3cc(ccc3n1CCOC1CCOCC1)-c1csc(n1)[C@@H](N1CC3(COC3)C1)[C@H](NC(=O)[C@H](C(C)C)N(C)C(=O)N1CC[C@@H](c3ccccc3)C1)C(=O)N1CCC[C@H](N1)C(=O)OCC(C)(C)C2 (atropisomer, axis not shown) [Example A1095] | greater decrease in cell viability |
| CO[C@@H](C)c1ncccc1-c1c2c3cc(ccc3n1CCOC1CCOCC1)-c1coc(n1)[C@@H](N1CC[C@@H](F)C1)[C@H](NC(=O)[C@H]1[C@H](C)[C@@H]1C)C(=O)N1CCC[C@H](N1)C(=O)OCC(C)(C)C2 (atropisomer, axis not shown) [Example A1114] | greater decrease in cell viability |
| C[C@@H]1[C@@H](C(=O)N[C@@H]2C(=O)N3CCC[C@H](N3)C(=O)OCC(C)(C)Cc3c(-c4cccnc4)n([C@H]4CC[C@@H](C#N)C4)c4ccc(cc34)-c3coc(n3)[C@H]2N2CC3(COC3)C2)[C@@H]1c1ccncn1 [Example A984] | greater decrease in cell viability |
| CC1C(C)C1C(=O)NC1C(=O)N2CCCC(N2)C(=O)OCC(C)(C)Cc2c(-c3cccnc3)n(C3CCC(C#N)C3)c3ccc(cc23)-c2coc(n2)C1N1CC2(COC2)C1 (stereo not drawn) [Example A986] | greater decrease in cell viability |

same assay, conditions: 5-day treatment, Capan-1 versus A375

| Compound | decrease in cell viability with respect to KRAS G12V (Capan-1) versus wild-type KRAS (A375) |
| --- | --- |
| C[C@@H]1[C@H](C)[C@H]1C(=O)N[C@@H]1C(=O)N2CC3CC(C3)(N2)C(=O)OCC(C)(C)Cc2c3n(c4ccc(cc24)-c2csc(n2)[C@H]1N1CC2(COC2)C1)CCOCCO[C@@H](C)c1ncc(N2CCN(C4CC4)CC2)cc1-3 (racemic) [Example A2] | greater decrease in cell viability |
| CO[C@@H](C)c1ncc(N2CCN(C3CC3)CC2)cc1-c1c2c3cc(ccc3n1CCOC1CCOCC1)-c1coc(n1)[C@@H](N1CC3(CCCO3)C1)[C@H](NC(=O)[C@@H]1[C@@H]3COC[C@@H]31)C(=O)N1CCC[C@H](N1)C(=O)OCC(C)(C)C2 (racemic) [Example A5] | greater decrease in cell viability |
| [2H]C([2H])([2H])[C@]1([2H])OC2(C(=O)N[C@@H]3C(=O)N4CCC[C@H](N4)C(=O)OCC(C)(C)Cc4c(-c5cc(N6CCN(C7CC7)CC6)cnc5[C@H](C)OC)n(CCOC5CCOCC5)c5ccc(cc45)-c4csc(n4)[C@H]3N3CC4(COC4)C3)CC1(C)C2 (racemic) [Example A23] | greater decrease in cell viability |
| [2H][C@@]1(C)OC2(C(=O)N[C@@H]3C(=O)N4CCC[C@H](N4)C(=O)OCC(C)(C)Cc4c(-c5cc(N6CCN(C7CC7)CC6)cnc5[C@H](C)OC)n(CCOC5CCOCC5)c5ccc(cc45)-c4csc(n4)[C@H]3N3CC4(COC4)C3)CC1(C)C2 (racemic) [Example A24] | greater decrease in cell viability |
| CO[C@@H](C)c1ncc(C2CCN(C3CC3)CC2)cc1-c1c2c3cc(ccc3n1CCOC1CCOCC1)-c1coc(n1)[C@@H](N1CC3(COC3)C1)[C@H](NC(=O)[C@H]1[C@H](C)[C@@H]1C)C(=O)N1CCC[C@H](N1)C(=O)OCC(C)(C)C2 (racemic) [Example A33] | greater decrease in cell viability |
| CO[C@@H](C)c1ncc(N2CCNCC2)cc1-c1c2c3cc(ccc3n1CCOC1CCOCC1)-c1csc(n1)[C@@H](N1CC3(COC3)C1)[C@H](NC(=O)[C@@H]1OC[C@@H]1C)C(=O)N1N[C@H](C(=O)OCC(C)(C)C2)C2CC1C2 (racemic) [Example A38] | greater decrease in cell viability |
| C[C@@H]1OCCOCCn2c(c3c4cc(ccc42)-c2csc(n2)[C@@H](N2CC4(COC4)C2)[C@H](NC(=O)[C@@H]2OC[C@@H]2C)C(=O)N2CC4CC(C4)(N2)C(=O)OCC(C)(C)C3)-c2cc(N3CCN(C4CC4)CC3)cnc21 (racemic) [Example A78] | greater decrease in cell viability |
| COCCC(C)OCCn1c(-c2cc(N3CCN(C4CC4)CC3)cnc2[C@H](C)OC)c2c3cc(ccc31)-c1csc(n1)[C@@H](N1CC3(C1)CS(=O)(=O)C3)[C@H](NC(=O)C13CC(C1)[C@H](C)O3)C(=O)N1CCC[C@H](N1)C(=O)OCC(C)(C)C2 (mixture of isomers) [Example A363] | greater decrease in cell viability |
| CO[C@@H](C)c1ncc(N2CCN(C3CC3)CC2)cc1-c1c2c3cc(ccc3n1CCO[C@H]1CCOC(C)(C)C1)-c1csc(n1)[C@@H](N1CCC1)[C@H](NC(=O)[C@@H]1[C@@H](C)[C@H]1c1ccccn1)C(=O)N1CCC[C@H](N1)C(=O)OCC(C)(C)C2 (racemic) [Example A373] | greater decrease in cell viability |
| CO[C@@H](C)c1ncc(N2CCN(C3CC3)CC2)cc1-c1c2c3cc(ccc3n1CCOC1CCOCC1)-c1csc(n1)[C@@H](N1CC[C@H](F)C1)[C@H](NC(=O)[C@@H]1[C@@H](C)[C@H]1c1ccncn1)C(=O)N1CC3CC(C3)(N1)C(=O)OCC(C)(C)C2 (racemic) [Example A387] | greater decrease in cell viability |
| CO[C@@H](C)c1ncc(N2CCN(C3CC3)CC2)cc1-c1c2c3cc(ccc3n1CCOC1CCOCC1)-c1csc(n1)[C@@H](N1CC[C@H](F)C1)[C@H](NC(=O)[C@@H]1[C@@H](C)[C@H]1c1ccccn1)C(=O)N1CC3CC(C3)(N1)C(=O)OCC(C)(C)C2 (racemic) [Example A396] | greater decrease in cell viability |
| CO[C@@H](C)c1ncc(N2CCN(C3CC3)CC2)cc1-c1c2c3cc(ccc3n1CCOC1CCOCC1)-c1csc(n1)[C@@H](N1CCC1)[C@H](NC(=O)C13CC(C1)[C@H](C)O3)C(=O)N1CCC[C@H](N1)C(=O)OCC(C)(C)C2 (racemic) [Example A403] | greater decrease in cell viability |
| COC(C)c1ncc(N2CCN(C3CC3)CC2)cc1-c1c2c3cc(ccc3n1CCOC1CCOC(C)(C)C1)-c1csc(n1)C(OCC(F)F)C(NC(=O)C1C(C)C1c1ccncn1)C(=O)N1NC(C(=O)OCC(C)(C)C2)C2CC1C2 (stereo not drawn) [Example A379] | greater decrease in cell viability |

Source: US20250154171A1, “RAS INHIBITORS” (Revolution Medicines, Inc., priority 2023, published 2025)
